Source: PMC7737771, “In‐depth interrogation of protein thermal unfolding data with MoltenProt” (Protein Science : A Publication of the Protein Society, 2020)
These are yes or no findings as the source states them, for the method shown. Some binding calls cover weakened binding; strength is not graded here.

Assays:
[1] = molecular target: T1, KtrB (UniProt O32081); assay: reconstitution and co-purification (affinity chromatography, then SEC); KtrA‐ATP or KtrA‐AMP added to KtrB at the affinity chromatography step of KtrB purification (1 mM ATP or 10 μM AMP); complex dialyzed and purified by SEC in 20 mM Tris–HCl pH 8.0, 120 mM NaCl, 30 mM KCl, 5 mM DTT, 1.5 mM CYMAL‐6; only the binder purified
T1 sequence: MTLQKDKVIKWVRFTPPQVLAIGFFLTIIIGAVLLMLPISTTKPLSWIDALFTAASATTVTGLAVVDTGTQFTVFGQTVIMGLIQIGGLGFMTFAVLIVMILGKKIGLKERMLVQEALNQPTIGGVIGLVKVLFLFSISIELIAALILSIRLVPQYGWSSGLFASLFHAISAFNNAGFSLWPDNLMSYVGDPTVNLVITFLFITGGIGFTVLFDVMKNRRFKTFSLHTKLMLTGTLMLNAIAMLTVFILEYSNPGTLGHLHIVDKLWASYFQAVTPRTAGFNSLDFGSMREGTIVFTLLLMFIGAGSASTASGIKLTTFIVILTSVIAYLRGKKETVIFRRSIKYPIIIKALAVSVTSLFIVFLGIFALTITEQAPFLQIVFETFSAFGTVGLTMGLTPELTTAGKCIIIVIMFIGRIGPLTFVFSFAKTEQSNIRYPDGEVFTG

[2] = molecular target: RuvB from Streptococcus thermophilus (Streptococcus thermophilus) (UniProt Q03IE9); assay: negative staining electron microscopy; RuvB in 20 mM Tris pH 8.0, 20 mM NaCl, 10 mM MgCl2, 2% glycerol, 0.5 mM DTT with 1 mM ATPgS; 2% uranyl acetate; both purified

| Binder | binding [1] | binding [2] |
| --- | --- | --- |
| KtrA (protein, UniProt O32080 1-222) MGRIKNKQFAVIGLGRFGGSICKELHRMGHEVLAVDINEEKVNAYASYATHAVIANATEENELLSLGIRNFEYVIVAIGANIQASTLTTLLLKELDIPNIWVKAQNYYHHKVLEKIGADRIIHPEKDMGVKIAQSLSDENVLNYIDLSDEYSIVELLATRKLDSKSIIDLNVRAKYGCTILAIKHHGDICLSPAPEDIIREQDCLVIMGHKKDIKRFENEGM | binds | – |
| RuvB from Streptococcus thermophilus (enzyme, UniProt Q03IE9 1-333) MARILDNDLLGDEEYVERTLRPQYFKEYIGQDKVKDQLKIFIEAAKLRDEALDHTLLFGPPGLGKTTMAFVIANEMGVNLKQTSGPAIEKAGDLVAILNDLEPGDILFIDEIHRMPMAVEEVLYSAMEDYYIDIMIGAGETSRSVHLDLPPFTLVGATTRAGMLSNPLRARFGINGHMEYYELPDLTEIVERTSEIFEMTITPEAALELARRSRGTPRIANRLLKRVRDYAQIMGDGVIDDKIADQALTMLDVDHEGLDYVDQKILRTMIEMYGGGPVGLGTLSVNIAEERETVEDMYEPYLIQKGFIMRTRTGRVATAKAYEHMGYDYTRDN | – | binds |
